Data taken from ChEMBL document CHEMBL3988442, “University of Dundee, Small-Polar-MMV Screening Library” (2021).

Amino acid sequences for entries named in this document (tags omitted).
UniProt E9BF75, entry or part of it: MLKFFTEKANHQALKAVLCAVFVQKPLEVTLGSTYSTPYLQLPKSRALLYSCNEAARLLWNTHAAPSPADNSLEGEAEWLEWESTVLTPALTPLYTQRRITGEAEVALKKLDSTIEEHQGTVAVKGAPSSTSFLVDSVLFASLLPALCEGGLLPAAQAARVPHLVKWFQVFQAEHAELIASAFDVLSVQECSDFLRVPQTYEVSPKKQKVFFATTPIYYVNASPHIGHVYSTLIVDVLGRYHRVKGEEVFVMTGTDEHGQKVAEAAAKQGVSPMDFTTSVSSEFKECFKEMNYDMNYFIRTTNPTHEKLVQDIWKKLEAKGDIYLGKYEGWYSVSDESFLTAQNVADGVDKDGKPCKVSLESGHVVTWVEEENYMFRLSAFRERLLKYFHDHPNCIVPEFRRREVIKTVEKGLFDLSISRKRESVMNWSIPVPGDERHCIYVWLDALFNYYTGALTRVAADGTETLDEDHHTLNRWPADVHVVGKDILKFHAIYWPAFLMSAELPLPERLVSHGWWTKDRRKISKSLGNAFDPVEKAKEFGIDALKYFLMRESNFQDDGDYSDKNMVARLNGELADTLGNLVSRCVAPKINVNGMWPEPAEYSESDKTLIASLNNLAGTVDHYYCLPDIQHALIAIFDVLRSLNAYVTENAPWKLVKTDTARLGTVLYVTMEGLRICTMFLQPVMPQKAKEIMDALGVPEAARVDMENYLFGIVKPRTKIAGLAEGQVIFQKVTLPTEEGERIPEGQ

All values are in %. How 0% and 100% were set is not recorded. Most values in the screen are low, and negative values occur. The compounds are a random part of those screened. A dash means the value is not listed here; it may have been measured.

LdMetRS: 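Methionyl-tRNA synthetase (putative), Leishmania donovani (UniProt E9BF75). Primary screen of methionyl-tRNA synthetase; the read-out is not stated. The test concentration is not given. The values are filed as inhibition. Of about 68,000 compounds tested this way, about 24 (0.035%) reached 50% or more in at least one test.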
Mtb heat-shock: 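Assay on Mycobacterium tuberculosis, filed only as a heat shock assay from Cornell; the read-out is not stated. The concentration is filed as 10 mM, unlikely as a test dose, so the dose is not known. The record gives no direction; compounds that gave an IC50 in retests scored well above the rest, so higher reads as stronger inhibition. About 69,000 compounds were tested under these conditions; 1.4% (about 930) showed 50% or more at least once.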

| Compound | LdMetRS | Mtb heat-shock |
|---|---|---|
| `Cc1ccccc1-c1cncc(C2CCN(Cc3ccccn3)CC2)n1` | 18.75 | 29.52 |
| `CCC1CCCCCN1C(=O)c1ccc(N2CCC(O)CC2)cc1` (stereo not given) | -15.26 | -0.1114 |
| `CNC(=O)CCN1CCCCCC1c1ccc(C)o1` (stereo not given) | 12.39 | -13.11 |
| `CCN(CC)c1ccc(NS(=O)(=O)c2cccnc2)cn1` | 21.28 | 61.96 |
| `O=C(CC1CC1)N1CCc2ncc(CN3CCOCC3)n2CC1.O=C(O)C(F)(F)F` | - | 2.118 |
| `c1cnnc(N2CCCC2CNc2ncnc3ccsc23)c1` (stereo not given) | 23.78 | 8.126 |
| `CCc1nnsc1C(=O)N(C)Cc1ccc(C)o1` | 6.41 | 5.882 |
| `O=C(C[C@@H]1COC[C@H]2CN(C3CCCC3)C[C@@H]12)NCc1cccnc1` | 6.593 | - |
| `NC(=O)c1ccc(S(=O)(=O)NCCc2ccccn2)cc1` | 5.163 | 2.755 |
| `CC(C)=CCN1CCN(C(=O)c2snnc2C)[C@H]2CS(=O)(=O)C[C@H]21` | 17.4 | - |
| `CSc1nc(C)cc(N2CCC(c3ncc[nH]3)CC2)n1` | 6.723 | -35.11 |
| `CCc1nc(C2CCCN2Cc2ccno2)no1` (stereo not given) | 16.24 | -14.51 |
| `Cc1ccccc1-c1noc(CN2CCC(N3CCNC3=O)CC2)n1` | 15.1 | -4.289 |
| `Cc1noc(C[C@@H]2COC[C@H]3CN(C(=O)C4=CCCC4)C[C@@H]23)n1` | 18.12 | - |
| `Cc1nc(CN(C)C2CCCN(c3cccnn3)C2)oc1C` (stereo not given) | 28.92 | -17.88 |
| `CC(C)Cc1nc(CS(=O)(=O)C(C)C(=O)N2CCOCC2)no1` (stereo not given) | 9.192 | 5.483 |
| `COc1cc2c(cc1-c1nc3c(cnn3C(C)C(C)C)[nH]1)OCO2` (stereo not given) | 14.71 | 22.11 |
| `O=C(O)C(F)(F)F.[H][C@@]12OCCN(Cc3nccn3C)[C@@]1([H])CCC2CNC(=O)c1ccco1` (stereo not given in full) | - | -11.09 |
| `CCC(C)NC(=O)c1ccc(CNC(=O)CC(C)(C)C)cc1` (stereo not given) | -0.9639 | 9.999 |
| `Cn1cc(CN2CCC[C@]3(C(=O)O)CN(c4cnccn4)CC[C@@H]23)cn1` | 8.939 | - |
| `COc1ccc(-c2cnc3c(c2)CN(C2CC2)C(=O)CCN3)cc1` | 16.16 | 36.55 |
| `Cc1oncc1C(=O)N1CC[C@H]2[C@H](C[C@@H](CN3CCCC3)N2C)C1` | -1.099 | - |
| `[H][C@@]12CCN(c3ccc(C)nn3)C[C@]1(C(=O)N1CCCC1)CCO2` | - | -7.286 |
| `COCC1c2c(cnn2C)CCN1Cc1ccc(F)cc1.O=C(O)C(F)(F)F.O=C(O)C(F)(F)F` (stereo not given) | - | 8.912 |
| `Cc1ncc2c(n1)CN(Cc1nnc(Cc3ccccc3)o1)CC2` | 25.08 | 4.056 |
| `O=C1CCC2(CCN(Cc3cc(F)cc(F)c3)CC2)CN1CCO` | 16.81 | -0.4086 |
| `COc1cccc(CC(=O)N2CCc3nc(C(N)=O)sc3CC2)c1` | 10.1 | -24.16 |
| `COc1ccccc1C1(C(=O)N2CCCC(c3cc(C)[nH]n3)C2)CC1` (stereo not given) | 15.03 | -2.35 |
| `O=C(NCCn1nc(C2CCNC2)c2cccnc21)c1ccccc1` (stereo not given) | 14.58 | - |
| `O=C(CC1CC1)NCc1cn2c(n1)CN(Cc1cccc(F)c1)CC2` | 13.65 | - |
| `CNC(=O)C(c1cccc(Cl)c1)C(C)C` (stereo not given) | 5.775 | -16.87 |
| `CNC(=O)c1c(C)cccc1NCc1noc(C2CC2)n1` | 12.23 | 16.71 |
| `CN(C)CCO[C@H]1CN(C(=O)c2ccc[nH]2)[C@@H]2COC[C@H]12` | 7.19 | - |
| `O=C(c1cocn1)N1C[C@H]2CCC[C@@]2(COCc2cccnc2)C1` | 5.625 | - |
| `[H][C@@]12OCCN(C(=O)C3CCOCC3)[C@@]1([H])CC[C@H]2OCC1CC1` | - | -1.259 |
| `Cc1noc([C@H]2C[C@H]3OCC[C@H]3N(Cc3ccc(F)cc3)C2)n1` | 14.92 | - |
| `[H][C@@]12CCN(Cc3c(C)noc3C)C[C@@]1([H])O[C@H](c1ccncn1)C2` | - | 0.2457 |
| `CO[C@H]1COCCN(C(=O)c2ccc(C(F)(F)F)cc2)C1` | 15.04 | -15.83 |
| `O=C(O)C(F)(F)F.[H][C@@]12COC[C@]1([H])[C@@H](OCC1CCOCC1)CN2Cc1cc(C)c(C)o1` | - | 5.146 |
| `Cc1cc(C)n(CC2CCCN2CC(=O)Nc2cc(C(C)C)no2)n1` (stereo not given) | 0 | 66.41 |
| `COC(=O)NCC(=O)N(C)Cc1csc(-c2cccs2)n1` | 8.824 | -18.03 |

5 of the entries, repeated:

* CCC(C)NC(=O)c1ccc(CNC(=O)CC(C)(C)C)cc1 (stereo not given) | LdMetRS: -0.9639%; Mtb heat-shock: 9.999%
* Cc1ncc2c(n1)CN(Cc1nnc(Cc3ccccc3)o1)CC2 | LdMetRS: 25.08%; Mtb heat-shock: 4.056%
* CC(C)Cc1nc(CS(=O)(=O)C(C)C(=O)N2CCOCC2)no1 (stereo not given) | LdMetRS: 9.192%; Mtb heat-shock: 5.483%
* Cc1cc(C)n(CC2CCCN2CC(=O)Nc2cc(C(C)C)no2)n1 (stereo not given) | LdMetRS: 0%; Mtb heat-shock: 66.41%
* O=C(C[C@@H]1COC[C@H]2CN(C3CCCC3)C[C@@H]12)NCc1cccnc1 | LdMetRS: 6.593%